Here are results for four molecules from patent US5998521A, “Aqueous fluoropolymer compositions and method of preparing the same” (3M Innovative Properties Company, priority 1996, dated 1999).

Entries after “also recorded” stand apart in the source; their conditions may differ.

A short description of this series: Emulsion copolymerization of hexafluoropropylene and vinylidene fluoride. To be noted: for Size: latex particle size. An excerpt: The following procedure was used to evaluate C7 F15 CF(CF3)COO^- NH4^+ (from Ex. M1) as an emulsifier to copolymerize hexafluoropropylene (HFP) and vinylidene fluoride.
A 1 gallon, vertically agitated stainless steel reactor with pressure and temperature controls was evacuated and twice purged with nitrogen. Using an isolated vacuum, a solution comprised of 2 g of ammonium persulfate (initiator) and 6 g of dipotassium phosphate dissolved in 2800 g of deionized water was introduced into the reactor. The remaining vacuum on the reactor was vented with nitrogen, and the solution was degassed twice under agitation using alternate vacuum and nitrogen purges. A sufficient amount of a solution of C7 F15 CF(CF3)COO^- NH4^+ in approximately 20 g of 60-70° C. deionized water was introduced to the reactor under isolated vacuum to give a calculated final concentration of 350 ppm emulsifier in the aqueous solution. The reactor was vented with nitrogen, the solution was agitated very briefly, and the reactor was evacuated of nitrogen and isolated. Then the reactor was vented with hexafluoropropylene monomer to a pressure of approximately 10 psig (1280 torr total pressure), and the temperature of the batch was raised to 72° C. with high agitation. Maintaining the temperature at 72° C., a monomer mixture of 60% (wt) of vinylidene fluoride and 40% (wt) hexafluoropropylene was fed from a tared gas cylinder into the head space of the reactor to maintain a reactor pressure of 130 psig (7480 total pressure). After feeding in about 1 kg of monomer blend (approximately 3.75 hours duration), the introduction of monomer was ceased, the reaction was allowed to cool to room temperature, and any residual unreacted monomer was vented.
The resulting latex polymer was drained from the reactor, and percent solids of the latex was determined to be 25% by weight as measured by drying 10 g of latex in a forced air oven for 16 hours at 105° C.
The reactor body was separated from the reactor head, and a visual inspection of the reactor was made to determine the amount of coagulated polymer in the reactor (the amount should be minimal in a good polymerization reaction). A qualitative rating was assessed, ranging from "none" to "little" to "some."
The latex stability was determined by half filling a 16 oz (450 mL) jar with latex and shaking several hours in the horizontal position, quantitatively rating the latex after shaking using a 3-point scale ranging from 0=very stable to 3=unstable.
Particle size in the latex was determined using 90° scattering on a Coulter sub-micron particle size analyzer.
Degree of foaming was rated using the following qualitative scale: 0=not foamy, 1=slightly foamy, 2=moderately foamy, and 3=very foamy.
In Example P2, the same experiment was run as in Example P1, except that the concentration of C7 F15 CF(CF3)COO^- NH4^+emulsifier was raised to 3500 ppm, the reaction time decreased from 3.75 to 3.5 hours, and the reaction temperature increased from 72° C. to 78° C.
In Comparative Examples P3-P6, the same experiment was run as in Example P1, except that C8 F17 SO2 N(C2 H5)CH2 COO^- K^+ (Fluorad™ FC-128 Fluorochemical Surfactant, available from 3M Company, St. Paul, Minn.), C7 F15 COO^- H4 N^+ (Fluorad™ FC-143 Fluorochemical Surfactant), and Surflon™ S111S Fluorochemical Surfactant (believed to be nominally telomer-based n-C9 F19 COO^- H4 N^+, commercially available from Asahi Glass Corp., Japan) were substituted for C7 F15 CF(CF3)COO^- HN^+ emulsifier.

In the case of `O=C(O)C(F)(C(F)(F)F)C(F)(F)C(F)(F)C(F)(F)C(F)(F)C(F)(F)C(F)(F)C(F)(F)F` (stereo not shown) [Example M14, C7 F15 CF(CF3)COO^- H4 N^+], the “performance as emulsifier” value (350 ppm or 3500 ppm, listed as C7 F15 CF(CF3)COO^- NH4^+) was “performs comparably to Fluorad™ FC-143 and Surflon™ S111S; also recorded: overall performance being comparable to Fluorad™ FC-128”. For the same molecule, the Size by setting is: (emulsifier 350 ppm) 210 nm; (emulsifier 3500 ppm) 69 nm. For the same molecule, the Coagulation result by setting is: (emulsifier 350 ppm, listed as C7 F15 CF(CF3)COO^- NH4^+) “some and no coagulation”; (emulsifier 3500 ppm, listed as C7 F15 CF(CF3)COO^- NH4^+) “none and coagulation was eliminated”.

For `O=C(O)C(F)(F)C(F)(F)C(F)(F)C(F)(F)C(F)(F)C(F)(F)C(F)(F)F` [FC-143, C7 F15 COO^- H4 N^+], under “emulsifier 350 ppm”, the Coagulation entry is “some” and the Size is 209 nm.

Take `CCN(CC(=O)O)S(=O)(=O)C(F)(F)C(F)(F)C(F)(F)C(F)(F)C(F)(F)C(F)(F)C(F)(F)C(F)(F)F` [Fluorad ™ FC-128, C8 F17 SO2 N(C2 H5)CH2 COO^- K^+]: where the note is “emulsifier 100 ppm”, the Coagulation result is recorded as “some” and the Size is 237 nm. For the same molecule, where the note is “emulsifier 350 ppm”, the Coagulation entry was “none” and the Size is recorded as 88 nm.

Consider `N.O=C(O)C(F)(F)C(F)(F)C(F)(F)C(F)(F)C(F)(F)C(F)(F)C(F)(F)C(F)(F)C(F)(F)F` [Surflon ™ S111S, n-C9 F19 COO^- H4 N^+], for which, for the setting “emulsifier 350 ppm”, the Coagulation entry is “some” and the Size turned out to be 203 nm.
